# Laboratory results published in PubChem BioAssay AID743255 (National Center for Advancing Translational Sciences (NCATS), 2014).
# Amino acid sequences for entries named in this document (tags omitted). A change or cut given only in a name is not applied to a line headed by its entry.
# UniProt O94782: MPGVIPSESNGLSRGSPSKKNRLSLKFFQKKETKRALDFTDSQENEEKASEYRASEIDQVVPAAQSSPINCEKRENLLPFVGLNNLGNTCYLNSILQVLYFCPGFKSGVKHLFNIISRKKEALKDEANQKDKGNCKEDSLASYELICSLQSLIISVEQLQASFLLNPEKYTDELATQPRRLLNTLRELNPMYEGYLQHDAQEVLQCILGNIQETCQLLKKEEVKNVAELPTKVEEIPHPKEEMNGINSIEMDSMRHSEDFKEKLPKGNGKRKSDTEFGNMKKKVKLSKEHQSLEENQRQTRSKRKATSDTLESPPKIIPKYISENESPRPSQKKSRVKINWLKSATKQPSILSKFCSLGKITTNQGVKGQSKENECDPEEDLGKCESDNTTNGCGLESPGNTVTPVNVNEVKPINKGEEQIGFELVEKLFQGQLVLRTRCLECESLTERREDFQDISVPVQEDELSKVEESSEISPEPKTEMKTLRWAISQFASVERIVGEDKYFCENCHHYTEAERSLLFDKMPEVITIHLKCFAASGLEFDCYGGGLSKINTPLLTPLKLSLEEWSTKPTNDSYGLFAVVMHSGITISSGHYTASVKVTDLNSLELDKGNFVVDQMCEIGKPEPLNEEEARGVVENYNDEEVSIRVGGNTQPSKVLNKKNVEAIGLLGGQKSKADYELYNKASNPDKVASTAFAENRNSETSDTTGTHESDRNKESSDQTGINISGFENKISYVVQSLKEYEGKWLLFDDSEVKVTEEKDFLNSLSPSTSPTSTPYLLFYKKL
# “And” between values parts separate entries of the source, which are not always exact repeats. Identical values can stand only once. The whole screen tested about 390,000 compounds, of which about 910 (0.23%) were called active. This list was built around the results that the source calls inconclusive (neither active nor inactive); the mix of calls is not that of the screen. Calls follow the shape of the dose curve; as a rule, active = well fitted inhibition curve with a large enough effect; inconclusive = small, poorly fitted or top-dose-only effect; inactive = no such curve, though single readings can be large or run the other way. Potencies beside an inconclusive call are fits to weak or partial responses and may not hold up.
# Target: Ubiquitin carboxyl-terminal hydrolase 1 (Homo sapiens) (UniProt O94782)
# Test: Inhibitors of USP1/UAF1: Primary Screen; also: nearly all actives have a fitted effect of over 60% in size
# Conditions: recombinant USP1/UAF1, Ub-Rhodamine cleavage fluorescence; activity change, negative = inhibition: at 57.1 µM (top of the series)
# Summary of the method: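 High-throughput fluorogenic screen: 1nM USP1/UAF1 complex, Ub-Rho substrate 150nM final, 50mM HEPES pH 7.8 with 0.5mM EDTA, 0.1 mg/ml BSA, 1mM TCEP and 0.01% Tween-20.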
# % is scaled to controls: 0 for no effect and ±100 for the full control effect; potency is read from the fitted curve at half-maximal effect.
Compound,Potency,"activity change, negative = inhibition"
CCN(CC)C(=O)[C@H]1C[C@H](CC(=O)NCCCN(C)C)C(=O)N2CCc3c([nH]c4cc(-c5ccco5)ccc34)[C@]12C,"inconclusive: 79.4 µM [inhibitor, partial curve, poor fit]",–
CCN(CC)c1ccc(-c2sc(Nc3ccccc3)n[n+]2-c2ccc(F)cc2)cc1,"inconclusive: 5.01 µM [inhibitor, partial curve]",–
O=C(NC1CCSc2ccccc21)c1cccc(Br)c1 (stereo not given),"inconclusive: 50.1 µM [inhibitor, partial curve]",–
CCOC(=O)/C(=C/c1ccc(OC(=O)c2ccccc2)cc1)C(C)=O,–,inactive: -15.6%
CCC(=O)N1c2ccccc2CC1C(=O)NCCCN1CCN(c2cccc(Cl)c2)CC1 (stereo not given),–,inactive: -11.4%
CC(C)Cn1cc(NC(=O)NCc2ccc(Cl)cc2)c2ccccc2c1=O,"inconclusive: 39.8 µM [inhibitor, partial curve, poor fit]",–
Cc1ccc(C(NC(=O)N2CCOCC2)C(Cl)(Cl)Cl)cc1F (stereo not given),–,inactive: -24.6%
CCOc1ccc(Nc2nc(N)c(C(=O)c3ccccc3Cl)s2)cc1,–,inactive: 29.3%
CCCCSc1nnc2[nH]c(=O)cc(C)n12,"inconclusive: 31.6 µM [inhibitor, single point]",–
Cc1c(C(=O)N(Cc2ccccc2)Cc2cccs2)cnn1-c1ccc(Cl)cc1,"inconclusive: 15.8 µM [inhibitor, partial curve]",–
CCNc1ccc(Br)cc(C(=O)/C=C/c2ccc(Cl)cc2Cl)c1=O,"inconclusive: 25.1 µM [inhibitor, partial curve]",–
Cc1ccc(CNC(=O)c2ccc3c(c2)CCN3S(=O)(=O)c2ccccc2)cc1,"inconclusive: 3.98 µM [inhibitor, partial curve]",–
Cc1oc2ncn(CC(C)C)c(=O)c2c1C(=O)NCCc1ccc(Cl)cc1,"inconclusive: 44.7 µM [inhibitor, partial curve, poor fit]",–
O=C(NC(NC(=S)Nc1cc(Cl)ccc1Cl)C(Cl)(Cl)Cl)c1ccco1 (stereo not given),–,inactive: 7.62%
CCCCNC(=O)c1onc(CSc2ccccc2CC)c1C(=O)O,"inconclusive: 39.8 µM [inhibitor, partial curve, poor fit]",–
CC[C@]12c3[nH]c4ccc(OC)cc4c3CCN1C(=O)C(CC(=O)NCc1ccc(OC)c(OC)c1)C[C@@H]2C(=O)N1CCN(C(=O)C2CC2)CC1 (stereo not given in full),"inconclusive: 200 µM [inhibitor, partial curve, poor fit]",–
CCCn1c(-c2ccc(OC)cc2)nc2c(=O)n(C)c(=O)[nH]c21,–,inactive: -18.2%
Cc1ccc(C)c(NC(=O)Cn2ncc3c([nH]c4ccccc43)c2=O)c1,"inconclusive: 2.82 µM [inhibitor, partial curve]",–
COC(=O)c1cc2oc(C)cc2n1Cc1cc(C)ccc1C,"inconclusive: 0.1 µM [inhibitor, full curve, poor fit]",–
Cc1cc(-c2ccc(C(C)C)c(S(=O)(=O)N3CCOc4ccccc43)c2)on1,–,inactive: -18.5%
C=CCNC(=O)C1CC(=O)N(c2ccc(C)cc2)C1 (stereo not given),"inconclusive: 39.8 µM [inhibitor, partial curve]",–
Cc1cccc(NC(=O)CC2Nc3cccc4cccc(c34)NC2=O)c1 (stereo not given),"inconclusive: 28.2 µM [inhibitor, partial curve] and inconclusive: 79.4 µM [inhibitor, partial curve, poor fit]",–

Compound,Potency,"activity change, negative = inhibition"
N#C/C(=C\N1CCCCC1)S(=O)(=O)c1ccc(Cl)cc1,–,inactive: -11.4%
COc1ccc(CCNC(=O)c2csc3c2CCCCC3)c(OC)c1,–,inactive: -0.194%
Cc1cc2nc(CS)[nH]c2cc1C,"inconclusive: 35.5 µM [inhibitor, partial curve]",–
CCC(=O)N1c2ccccc2CC1C(=O)N1CCN(c2cccc(OC)c2)CC1 (stereo not given),"inconclusive: 44.7 µM [inhibitor, partial curve, poor fit]",–
CCC1(CC)NC(=O)N(CC(=O)OC(C)C(=O)Nc2ccc(S(N)(=O)=O)cc2)C1=O (stereo not given),"inconclusive: 0.251 µM [inhibitor, full curve]",–
CCOc1ccc(OCC)c(NS(=O)(=O)c2c(C)[nH]c(=O)[nH]c2=O)c1,"inconclusive: 2.24 µM [inhibitor, full curve, poor fit]",–
Cc1c(Cl)cccc1NC(=O)N1CCC(CN2CCOCC2)CC1,–,inactive: -11.3%
COc1cccc(Nc2nc3ccc(OC)cc3s2)c1,"inconclusive: 6.31 µM [inhibitor, partial curve]",–
CCSc1nnc(NC(=O)c2csc3c2CCCC3)s1,"inconclusive: 39.8 µM [inhibitor, single point]",–
CCOc1ccc(N(C(=O)c2snc(C(N)=O)c2N)C(C(=O)NCC2CCCO2)c2ccco2)cc1 (stereo not given),"inconclusive: 35.5 µM [inhibitor, single point]",–
Cc1ccc(C(=O)CSc2nnc(-c3cccs3)n2C)o1,"inconclusive: 1 µM [inhibitor, full curve, poor fit]",–
CCOC(=O)CCSc1nc(C)cc(C(F)(F)F)c1C#N,"inconclusive: 31.6 µM [inhibitor, single point]",–
Cc1cc(C)cc(NC(=O)c2cn3c4c(ccc(Cl)c4c2=O)OC(C)C3)c1 (stereo not given),–,inactive: -9.24%
Cc1cccc(C)c1NC(=O)C(c1ccccc1)N1CC(=O)Nc2ccccc21 (stereo not given),"inconclusive: 0.794 µM [inhibitor, full curve]",–
COc1cc(/C=N/NC(=O)c2cccnc2)ccc1OS(=O)(=O)c1cc(C)ccc1C,"inconclusive: 22.4 µM [inhibitor, partial curve]",–
COc1ccc(CCN2CN(S(=O)(=O)c3ccc(OC)cc3)c3nc4ccccc4nc32)cc1,–,inactive: -21.6%
CN1c2ccccc2N(C)C1(C)c1cccc2ccccc12,–,inactive: -8.41%
CCOc1ccc(NC(=NCc2ccc3c(c2)OCO3)SC2CC(=O)N(c3ccc(C(=O)O)cc3)C2=O)cc1 (stereo not given),–,inactive: -1.57%
CC1(C)Cc2c(ccc3ccccc23)/C(=C/C(=O)N2CCCCC2)N1,"inconclusive: 44.7 µM [inhibitor, partial curve, poor fit]",–
CCN(Cc1ccccc1)C(=O)CN1C(=O)NC(CC)(c2ccc(F)cc2)C1=O (stereo not given),–,inactive: 0.984%
Cc1cc(C)cc(N=Cc2ccc([N+](=O)[O-])s2)c1,active: 12.6 µM,–
O=C(Nc1ccc(Br)cc1)c1ccc(F)c(S(=O)(=O)NC2CCCCCC2)c1,"inconclusive: 50.1 µM [inhibitor, partial curve, poor fit]",–

Compound,Potency,"activity change, negative = inhibition"
COCCCNC1=C(Cl)C(=O)c2ccccc2C1=O,"inconclusive: 31.6 µM [inhibitor, single point]",–
CCc1ccc(-n2nnc(-c3nsc(NC(=O)c4ccccc4Cl)n3)c2C)cc1,"inconclusive: 50.1 µM [inhibitor, partial curve, poor fit]",–
Cc1ccccc1-c1cc(C(=O)NCc2cccs2)n(CC2CC(c3cccnc3)=NO2)n1 (stereo not given),"inconclusive: 28.2 µM [inhibitor, partial curve]",–
COC(=O)C1=C(C(=O)OC)C(c2cc([N+](=O)[O-])ccc2O)c2sc(=O)[nH]c2S1 (stereo not given),"inconclusive: 39.8 µM [inhibitor, partial curve, poor fit]",–
CC(=O)Nc1ccc(NC(=O)c2cc(=O)c3ccccc3o2)cc1,"inconclusive: 2.24 µM [inhibitor, full curve, poor fit]",–
Cc1c(NC(=O)C(C)N2C(=O)C3C4C=CC(C4)C3C2=O)c(=O)n(-c2ccccc2)n1C (stereo not given),"inconclusive: 31.6 µM [inhibitor, partial curve]",–
O=C(Cn1ccc2ccccc2c1=O)NCC(=O)N1CCCCC1,"inconclusive: 7.08 µM [inhibitor, single point]",–
O=C1C(=O)c2ccccc2C(O)=C1CCCCl,active: 20 µM,–
O=C(C1=C[C@H](c2csc3ccccc23)C[C@H](OCCCCO)O1)N1CCOCC1,"inconclusive: 44.7 µM [inhibitor, partial curve, poor fit]",–
Cc1cccc(Cn2cc(/C=C/[N+](=O)[O-])c3ccccc32)c1,"inconclusive: 70.8 µM [inhibitor, partial curve, poor fit]",–
O=C(COc1ccccc1F)OCc1cc(=O)n2nc(C3CCCCC3)sc2n1,"inconclusive: 50.1 µM [inhibitor, partial curve]",–
CCN(CC)c1cc(C)c2cc(NC(=O)c3cccc(OC)c3OC)ccc2n1,"inconclusive: 56.2 µM [inhibitor, partial curve, poor fit]",–
O=c1c(OC2OC(CO)C(O)C(O)C2O)c(-c2ccc(O)c(O)c2)oc2cc(O)cc(O)c12 (stereo not given),"inconclusive: 79.4 µM [inhibitor, partial curve, poor fit]",–
CC(C)(C)OC(=O)N/N=C/c1ccc(Br)cc1,"inconclusive: 0.251 µM [inhibitor, full curve, poor fit]",–
CCc1c(C)sc2c1CCN(Cc1ccccc1)C2c1ccccc1 (stereo not given),"inconclusive: 17.8 µM [inhibitor, partial curve]",–
O=C(CCn1cnc2onc(-c3ccc(F)cc3)c2c1=O)Nc1ccc(F)c(Cl)c1,–,inactive: -24.1%
CC(/C=C/c1ccco1)=N\NC(=O)c1cccnc1,"inconclusive: 0.794 µM [inhibitor, full curve, poor fit]",–
O=C(Nc1cccnc1Cl)c1cc(-c2cccc(O)c2)on1,"inconclusive: 35.5 µM [inhibitor, single point]",–
CC(C)c1ccccc1NC(=S)NC1CCN(Cc2ccccc2)CC1,–,inactive: -14%
CCCn1c(=N)n(CC(=O)OCC)c2ccccc21,–,inactive: -1.34%
O=C1OCCN1C(=O)[C@H]1[C@H](c2ccc(Cl)cc2)C(c2ccccc2)=NN1c1ccccc1,"inconclusive: 39.8 µM [inhibitor, partial curve, poor fit]",–
